In all, about 3,800 compounds were measured (“cell shape (eccentricity) Z-score vs DMSO control”: median about 1.1, lowest 2% from about -4.7 on). The list shows a part of the results.
The compounds below were run on human monocyte-derived macrophages (M0) (assay: cell shape (eccentricity) Z-score vs DMSO control; higher = more elongated, M2-like morphology). Settings: 20 µM; 24 h; macrophage state: M0 (M-CSF).
Procedure: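 Primary human monocyte-derived macrophages (M-CSF differentiated, pooled from 4 donors, 5000 cells/well in 384-well plates) were treated with each compound at 20 uM for 24 h, then fixed and stained with phalloidin/DAPI and imaged on an Opera Phenix (6 fields, about 1000 cells/well). Cell eccentricity was measured with CellProfiler, and a Z-score (t-test) was computed against 4 DMSO control wells in the same row. Negative values mean round (M1-like) cells and positive values mean elongated (M2-like) cells; the paper's hit cutoffs are Z <= -4 (M1) and Z >= 6 (M2). Scale: negative = round, M1-like.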
With `CN(C(=O)Cc1ccccc1)C(CN1CCCC1)c1ccccc1` (stereo not given) the “cell shape (Z-score)” value was 1.47. `C[C@]12CC[C@H](OC3OC(O)C(O)C(O)C3O)C=C1CCC1C2CC[C@]2(C)[C@@H](c3ccc(=O)oc3)CC[C@]12O` (stereo not given in full) was tested, and the “cell shape (Z-score)” value was 2.21. In the case of `CC(CO)NC(=O)C1C=C2c3cccc4[nH]cc(c34)C[C@H]2N(C)C1` (stereo not given in full), the “cell shape (Z-score)” value is reported as 0.123. For `NCCc1c[nH]c2ccc(C(N)=O)cc12`, the “cell shape (Z-score)” value was 0.46. With `COC[C@H]1OC(=O)c2coc3c2[C@@]1(C)C1=C(C3=O)C2CCC(=O)[C@@]2(C)C[C@H]1OC(C)=O` (stereo not given in full) the “cell shape (Z-score)” value was 0.813. For `COc1ccc2c3c1O[C@H]1[C@@H](O)C=C[C@H]4C(C2)N(C)CCC341` (stereo not given in full), the “cell shape (Z-score)” value was 0.81. For `C[C@H]1O[C@@H](O[C@H]2CC[C@]3(CO)C4CC[C@]5(C)[C@@H](C6=CC(=O)OC6)CC[C@]5(O)C4CC[C@H]3C2)[C@H](O)[C@H](O)[C@@H]1O` (stereo not given in full), the “cell shape (Z-score)” value was 1.31. In the case of `CCCCCCC(=O)CCCCCC/C=C/C[C@H](O)[C@@H](O)C(N)(CO)C(=O)O` (stereo not given in full), the “cell shape (Z-score)” value is reported as -1.3. For `C=CCN1CCC23c4c5ccc(O)c4OC2C(=NNC(=O)c2ccccc2)CCC3(O)C1C5` (stereo not given), the “cell shape (Z-score)” value was 2.96. `COc1cc([C@@H]2c3cc4c(cc3[C@H](O)[C@H]3COC(=O)[C@H]23)OCO4)cc(OC)c1OC` was tested, and the “cell shape (Z-score)” value was 8.07. With `CC1OC(OC2CC(O)C3(CO)C4C(O)CC5(C)C(C6=CC(=O)OC6)CCC5(O)C4CCC3(O)C2)C(O)C(O)C1O` (stereo not given) the “cell shape (Z-score)” value was 0.257. In the case of `CCC1(C2=NCCN2)Cc2ccccc2O1` (stereo not given), the “cell shape (Z-score)” value is reported as 1.25. For `O=C(NC(=O)c1c(F)cccc1F)Nc1cc(Cl)c(OC(F)(F)C(F)C(F)(F)F)cc1Cl` (stereo not given), the “cell shape (Z-score)” value was -1.05. `C[C@]12CCC(=O)C=C1CC[C@@H]1C2CC[C@]2(C)C(=O)CCC12` (stereo not given in full) was tested, and the “cell shape (Z-score)” value was 6.85. For `CCOc1cncc(C=CCCNC)c1`, the “cell shape (Z-score)” value was 1.66. `Cc1cc(O)cc2oc(=O)c3c(O)cc(O)cc3c12` was tested, and the “cell shape (Z-score)” value was 1.96. For `C[C@@H]1O[C@@H](O[C@H]2C[C@@H](O)[C@]3(CO)C4C(CC[C@]3(O)C2)[C@@]2(O)CC[C@H](C3=CC(=O)OC3)[C@@]2(C)C[C@H]4O)[C@H](O)[C@H](O)[C@H]1O` (stereo not given in full), the “cell shape (Z-score)” value was -0.127. With `C/C=C(\C)C(=O)OC1C(C)=C2C(C1OC(=O)CCCCCCC)C(C)(OC(C)=O)CC(OC(=O)CCC)C1(O)C2OC(=O)C1(C)O` (stereo not given) the “cell shape (Z-score)” value was 0.657. In the case of `CN1CC[C@@H]2CN3CCc4cccc(c43)[C@@H]2C1`, the “cell shape (Z-score)” value is reported as 1.32. For `C[C@]12CCC3[C@@H](CC[C@@]45O[C@@H]4C(=O)C(C#N)C[C@]35C)C1CC[C@@H]2O` (stereo not given in full), the “cell shape (Z-score)” value was -3.22. `CC(C)(O)c1cc(O)c2c(c1)CCC1C(C)(C(=O)O)CCCC21C` (stereo not given) was tested, and the “cell shape (Z-score)” value was 0.93. For `CN(C)C(=O)Oc1cc(OC(=O)N(C)C)cc(C(O)CNC(C)(C)C)c1` (stereo not given), the “cell shape (Z-score)” value was 2.11. `C[C@]12C=CC(=O)C=C1CCC1C2CC[C@]2(C)C(=O)CCC12` (stereo not given in full) was tested, and the “cell shape (Z-score)” value was 3.15. `CN(C)C(=O)Oc1cccc([N+](C)(C)C)c1` was tested, and the “cell shape (Z-score)” value was 2.05. In the case of `CCCN1CCO[C@@H]2c3cc(O)ccc3OC[C@H]21`, the “cell shape (Z-score)” value is reported as 1.71. `OC(Cc1ccncc1)C(Cl)(Cl)Cl` (stereo not given) was tested, and the “cell shape (Z-score)” value was 2.5. For `COc1cc(-n2c(=S)[nH]c3ccccc3c2=O)c(Cl)cc1Cl`, the “cell shape (Z-score)” value was 1.19. In the case of `O=c1[nH]c2ccccc2n1CCCN1CCC(n2c(=O)[nH]c3cc(Cl)ccc32)CC1`, the “cell shape (Z-score)” value is reported as -1.03. `CCCn1c(C)c(C(=O)c2cccc3ccccc23)c2ccccc21` was tested, and the “cell shape (Z-score)” value was 1.57. For `C=CC[C@]1(O)CCC2C3CCC4=CC(=O)CCC4=C3C=C[C@@]21C` (stereo not given in full), the “cell shape (Z-score)” value was 1.08. With `CCNC(=O)C[C@@H]1N=C(c2ccc(Cl)cc2)c2cc(OC)ccc2-n2c(C)nnc21` the “cell shape (Z-score)” value was 6.26. For `C=C(C)[C@@H]1[C@H]2OC(=O)[C@@H]1[C@]1(O)C[C@H]3O[C@]34C(=O)O[C@H]2[C@]14C`, the “cell shape (Z-score)” value was 5.17. `C=C1[C@@H](C)[C@H]2[C@H](Cc3ccccc3)NC(=O)[C@]23OC(=O)/C=C/[C@H](O)CCC[C@@H](C)C/C=C/[C@H]3[C@@H]1O` was tested, and the “cell shape (Z-score)” value was -24.4. In the case of `CCCN(CCC)C1Cc2cc(OC)c(OC)cc2C1`, the “cell shape (Z-score)” value is reported as 0.0873. For `COc1cc2c3cc1Oc1c(OC)c(OC)cc4c1[C@@H](Cc1cccc(c1)Oc1ccc(c(O)c1)C[C@@H]3N(C)CC2)N(C)CC4`, the “cell shape (Z-score)” value was 4.46. For `CO[C@H]1[C@H](O)[C@H](O[C@H]2CC[C@]3(C)C4CC[C@]5(C)[C@H](C6=CC(=O)OC6)CC[C@]5(O)C4CC[C@@H]3C2)O[C@@H](C)[C@@H]1O[C@@H]1O[C@H](CO[C@@H]2O[C@H](CO)[C@@H](O)[C@H](O)[C@H]2O)[C@@H](O)[C@H](O)[C@H]1O` (stereo not given in full), the “cell shape (Z-score)” value was -3.4. `CC1=CC[C@@H]2[C@@H](C1)c1c(O)cc(CC#CCCCNS(C)(=O)=O)cc1OC2(C)C` was tested, and the “cell shape (Z-score)” value was 2.35. With `C[C@H](Cc1ccc(OCC(=O)O)cc1)NC[C@H](O)c1cccc(Cl)c1` the “cell shape (Z-score)” value was 1.57. With `COc1ccc(C(=O)c2c(C)n(CCN3CCOCC3)c3ccccc23)cc1` the “cell shape (Z-score)” value was -0.409. In the case of `N#CC(C#N)=Cc1cc(O)c(O)c([N+](=O)[O-])c1`, the “cell shape (Z-score)” value is reported as -0.026. With `O=C1NCN(c2ccccc2)C12CCN(CC1COc3ccccc3O1)CC2` (stereo not given) the “cell shape (Z-score)” value was 2.31. In the case of `c1ccc2c(c1)[nH]c1cnccc12`, the “cell shape (Z-score)” value is reported as 0.646. For `Cc1cc(OC(=O)N2CCCCC2)c(C(C)C)cc1[N+](C)(C)C`, the “cell shape (Z-score)” value was 0.65. In the case of `CCC1CC2CC3(C(=O)OC)c4[nH]c5ccc(OC)cc5c4CCN(C2=O)C13` (stereo not given), the “cell shape (Z-score)” value is reported as 0.374. For `COC(=O)C12CC3CC(C(C)O)C1N(CCc1c2[nH]c2cc(OC)ccc12)C3` (stereo not given), the “cell shape (Z-score)” value was 1.23.

From the supplement of paper PMC7858590
